These are yes or no findings as the source states them, for the method shown. Some entries that bind do so weakly or less than the wild type.

Protein sequences, listed by entry. Tags and fused reporters are not part of them. Lines headed by an entry give the natural chain unless they say otherwise; changes in a name come on top. Chains listed by the source or under a name are the forms on record and can include a tag or linker. Residues count along the entry.
UniProt P01137, residues 279-390: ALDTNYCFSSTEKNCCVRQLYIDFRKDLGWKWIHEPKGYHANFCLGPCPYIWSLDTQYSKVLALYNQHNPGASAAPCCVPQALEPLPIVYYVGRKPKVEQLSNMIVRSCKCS
UniProt P04234, residues 22-105: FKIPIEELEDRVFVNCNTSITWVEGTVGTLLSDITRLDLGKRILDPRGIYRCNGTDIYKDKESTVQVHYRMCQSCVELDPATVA
InsulinR ectodomain (residues 28-953) with C-terminal TEV/His/AviTag (P06213, form named): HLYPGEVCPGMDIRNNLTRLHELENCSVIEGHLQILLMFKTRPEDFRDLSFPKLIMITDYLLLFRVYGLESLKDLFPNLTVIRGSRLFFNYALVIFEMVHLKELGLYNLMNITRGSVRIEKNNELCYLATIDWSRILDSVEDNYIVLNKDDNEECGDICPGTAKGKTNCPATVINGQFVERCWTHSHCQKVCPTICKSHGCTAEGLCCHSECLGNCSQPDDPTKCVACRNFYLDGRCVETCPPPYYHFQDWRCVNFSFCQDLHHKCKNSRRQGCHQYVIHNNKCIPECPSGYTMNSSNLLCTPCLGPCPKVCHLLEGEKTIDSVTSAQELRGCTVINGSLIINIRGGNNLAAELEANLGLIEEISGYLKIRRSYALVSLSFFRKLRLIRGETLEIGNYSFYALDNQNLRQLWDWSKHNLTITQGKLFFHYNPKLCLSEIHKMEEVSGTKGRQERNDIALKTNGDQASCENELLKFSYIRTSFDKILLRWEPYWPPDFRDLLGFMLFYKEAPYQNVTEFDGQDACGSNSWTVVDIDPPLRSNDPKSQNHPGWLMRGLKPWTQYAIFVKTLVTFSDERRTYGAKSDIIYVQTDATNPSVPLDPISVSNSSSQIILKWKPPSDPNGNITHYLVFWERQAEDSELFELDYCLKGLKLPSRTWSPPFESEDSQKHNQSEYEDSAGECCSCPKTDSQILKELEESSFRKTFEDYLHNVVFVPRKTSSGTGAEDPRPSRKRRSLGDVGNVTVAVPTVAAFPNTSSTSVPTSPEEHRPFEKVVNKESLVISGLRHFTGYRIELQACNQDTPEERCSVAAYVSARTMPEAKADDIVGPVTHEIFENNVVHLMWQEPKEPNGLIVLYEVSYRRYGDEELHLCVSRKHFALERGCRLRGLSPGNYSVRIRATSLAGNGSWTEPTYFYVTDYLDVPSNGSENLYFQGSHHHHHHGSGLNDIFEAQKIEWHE

Assay [1] concerns the target T1, TGF-β (Acro Biosystems Cat #TG1-H8217) (human, UniProt P01137 279-390).
T1 construct: also called TGFb; Transforming growth factor beta
The assay is described as follows: BLI, biotinylated target on SA biosensors, miniprotein as analyte.

Assay [2] deals with Biotinylated CD3 protein (Abcam Cat #ab205994); target CD3 delta chain (CD3δ) (human) (UniProt P04234). Described as above.
Assay [3] addresses InsulinR ectodomain (residues 28-953) with C-terminal TEV/His/AviTag (human) (UniProt P06213). The assay is described as follows: BLI, miniprotein immobilized on AR2G biosensors, insulin receptor as analyte. For orientation: BLI is a label-free optical method that tracks binding on a fibre tip over time.
Assay [4] has the same target. Put plainly: yeast display sorting and biolayer interferometry.

B1: TGF-β_mb (designed binder)
chain: MSHHHHHHHHSENLYFQSGGGHCTIEVVGVDPEKVEAIAAAYGAEVCEKDGKFEIHLDDPHSAESAAVAISVLTNRPVRLQC
Regarding B1, the binding result in assay [1] is “binds”.

B2: CD3δ_mb (designed binder)
chain: MSHHHHHHHHSENLYFQSGGGNHIACEIHNPEAAKEIAKVANVRRVYFIKQPGNRYFVLLKNADPEGVKKVRSKYNVRCVIRE
Consider B2, for which the binding result in assay [2] is on record as “binds”.

B3: InsulinR_mb (designed binder)
chain: MSHHHHHHHHSENLYFQSGGGDEELMELVYEAVEKNDPELLFEAWMELASLLDETGDPKIEEALGLLQQVDGGNPDAGRRIKELFK
Consider B3, for which the binding entry in assay [3] and in assay [4] was “binds” in each case.

Values taken from US20240376156A1, “MULTIPLE DE NOVO DESIGNED PROTEIN BINDING PROTEINS” (UNIVERSITY OF WASHINGTON, priority 2021, published 2024).
